Patent publication US11060087B2, “Synthetic promoters for high throughput screening and gene modulation” (The Regents of the University of California, priority 2016, dated 2021)
At least one compound was matched to its structure with a doubt left.

System: BIRC5
Experiment: High-throughput screening of FDA-approved drug library, BIRC5 synthetic promoter-driven luciferase
Type: cell-based, human
Settings: BIRC5SP-Luc2-Puro MiaPaca2 cells, 48 hours after drug administration, Bright-Glo / CellTiter-Glo
Excerpt: Differentially over-expressed BIRC5 was validated using RT-PCR in rPDAC versus matching non-tumor pancreas (FIG. 8A), as well as western blot assay of ATCC™ PDAC cell lines (FIG. 8B). These preliminary data support the WGCNA that BIRC5 is an actionable gene (AG) for rPDAC. A powerful synthetic promoter for BIRC5, BIRC5-SP (BL-2), was generated (FIG. 8C) and used for BIRC5^SP-Luc2-Puro stable transfection into MiaPaca2 cells, which in turn were used for high-throughput small molecule screening (HTS) of the FDA-approved drug library. BIRC5^SP-Luc2-Puro PDAC cells were plated on 384-well plates and 2100 FDA-approved drugs were applied to cells with a pin plate automatic system. Luciferase expression was measured in a plate reader 48 hours after drug administration using Bright-Glo™. Cell viability of treated cells was measured using CellTiter-Glo™. BIRC5-luciferase signal read outs were normalized using cell viability measurements. […]

| Compound | effect on BIRC5-luciferase signal normalized using cell viability |
| --- | --- |
| CC(C)n1c(/C=C/C(O)CC(O)CC(=O)O)c(-c2ccc(F)cc2)c2ccccc21 (centres unmarked) [fluvastatin] | Inhibitory |
| CCC(C)(C)C(=O)O[C@H]1C[C@@H](C)C=C2C=C[C@H](C)[C@H](CC[C@@H]3C[C@@H](O)CC(=O)O3)[C@H]21 [simvastatin] | Inhibitory |
